Experimental data taken from the supplement of paper PMC8728848.
The list shows a part of the results.

What was measured:
Assay in all cases: glycan array binding signal (z-score within array); higher = stronger binding
Details in all cases: glycan notation: IUPAC condensed, linker removed
[1] = molecular target: Neu5Ac(a2-3)[Neu5Ac(a2-6)]GalNAc
Method in brief: (§1)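 Glycan array data came from 3228 arrays in the Consortium for Functional Glycomics database, and only arrays with an available protein sequence were kept. Glycan names were put into IUPAC-condensed notation, and columns mapping to the same glycan were averaged. The binding signal is a within-array Z-score, averaged across arrays of one protein sequence run at different concentrations or buffers and across linkers. A negative Z-score can be read as non-binding.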

[2] = molecular target: Neu5Ac(a2-6)Gal
Method in brief: as §1

[3] = molecular target: Neu5Ac(a2-6)Gal(b1-3)GlcNAc(b1-3)[Gal(b1-4)GlcNAc(b1-6)]Gal(b1-4)Glc
Method in brief: as §1

[4] = molecular target: Neu5Ac(a2-6)Gal(b1-4)Glc
Method in brief: as §1

[5] = molecular target: Neu5Ac(a2-6)Gal(b1-4)GlcNAc
Method in brief: as §1

[6] = molecular target: Neu5Ac(a2-6)Gal(b1-4)GlcNAc(b1-2)Man
Method in brief: as §1

[7] = molecular target: Neu5Ac(a2-6)Gal(b1-4)GlcNAc(b1-2)Man(a1-3)Man(b1-4)GlcNAc(b1-4)GlcNAc
Method in brief: as §1

[8] = molecular target: Neu5Ac(a2-6)Gal(b1-4)GlcNAc(b1-2)Man(a1-3)[Gal(b1-4)GlcNAc(b1-2)Man(a1-6)]Man(b1-4)GlcNAc(b1-4)GlcNAc
Method in brief: as §1

[9] = molecular target: Neu5Ac(a2-6)Gal(b1-4)GlcNAc(b1-2)Man(a1-3)[GlcNAc(b1-2)Man(a1-6)]Man(b1-4)GlcNAc(b1-4)GlcNAc
Method in brief: as §1

[10] = molecular target: Neu5Ac(a2-6)Gal(b1-4)GlcNAc(b1-2)Man(a1-3)[GlcNAc(b1-2)Man(b1-4)GlcNAc(b1-2)Man(a1-6)]Man(b1-4)GlcNAc(b1-4)GlcNAc
Method in brief: as §1

[11] = molecular target: Neu5Ac(a2-6)Gal(b1-4)GlcNAc(b1-2)Man(a1-3)[GlcNAc(b1-4)][Neu5Ac(a2-6)Gal(b1-4)GlcNAc(b1-2)Man(a1-6)]Man(b1-4)GlcNAc(b1-4)GlcNAc
Method in brief: as §1

[12] = molecular target: Neu5Ac(a2-6)Gal(b1-4)GlcNAc(b1-2)Man(a1-3)[Man(a1-6)]Man(b1-4)GlcNAc(b1-4)GlcNAc
Method in brief: as §1

[13] = molecular target: Neu5Ac(a2-6)Gal(b1-4)GlcNAc(b1-2)Man(a1-3)[Neu5Ac(a2-3)Gal(b1-4)GlcNAc(b1-2)Man(a1-6)]Man(b1-4)GlcNAc(b1-4)GlcNAc
Method in brief: as §1

[14] = molecular target: Neu5Ac(a2-6)Gal(b1-4)GlcNAc(b1-2)Man(a1-3)[Neu5Ac(a2-6)Gal(b1-4)GlcNAc(b1-2)Man(a1-6)]Man(b1-4)GlcNAc(b1-4)GlcNAc
Method in brief: as §1

[15] = molecular target: Neu5Ac(a2-6)Gal(b1-4)GlcNAc(b1-2)Man(a1-3)[Neu5Ac(a2-6)Gal(b1-4)GlcNAc(b1-2)Man(a1-6)]Man(b1-4)GlcNAc(b1-4)[Fuc(a1-6)]GlcNAc
Method in brief: as §1

[16] = molecular target: Neu5Ac(a2-6)Gal(b1-4)GlcNAc(b1-2)Man(a1-6)Man(b1-4)GlcNAc(b1-4)GlcNAc
Method in brief: as §1

[17] = molecular target: Neu5Ac(a2-6)Gal(b1-4)GlcNAc(b1-2)Man(a1-6)[Gal(b1-4)GlcNAc(b1-2)Man(a1-3)]Man(b1-4)GlcNAc(b1-4)GlcNAc
Method in brief: as §1

[18] = molecular target: Neu5Ac(a2-6)Gal(b1-4)GlcNAc(b1-2)Man(a1-6)[GlcNAc(b1-2)Man(a1-3)]Man(b1-4)GlcNAc(b1-4)GlcNAc
Method in brief: as §1

[19] = molecular target: Neu5Ac(a2-6)Gal(b1-4)GlcNAc(b1-2)Man(a1-6)[Man(a1-3)]Man(b1-4)GlcNAc(b1-4)GlcNAc
Method in brief: as §1

[20] = molecular target: Neu5Ac(a2-6)Gal(b1-4)GlcNAc(b1-2)[Neu5Ac(a2-6)Gal(b1-4)GlcNAc(b1-4)]Man(a1-3)[GlcNAc(b1-4)][Neu5Ac(a2-6)Gal(b1-4)GlcNAc(b1-2)[Neu5Ac(a2-6)Gal(b1-4)GlcNAc(b1-6)]Man(a1-6)]Man(b1-4)GlcNAc(b1-4)GlcNAc
Method in brief: as §1

[21] = molecular target: Neu5Ac(a2-6)Gal(b1-4)GlcNAc(b1-2)[Neu5Ac(a2-6)Gal(b1-4)GlcNAc(b1-4)]Man(a1-3)[GlcNAc(b1-4)][Neu5Ac(a2-6)Gal(b1-4)GlcNAc(b1-4)Man(a1-6)]Man(b1-4)GlcNAc(b1-4)GlcNAc
Method in brief: as §1

[22] = molecular target: Neu5Ac(a2-6)Gal(b1-4)GlcNAc(b1-2)[Neu5Ac(a2-6)Gal(b1-4)GlcNAc(b1-6)]Man(a1-6)[Neu5Ac(a2-6)Gal(b1-4)GlcNAc(b1-2)Man(a1-3)][GlcNAc(b1-4)]Man(b1-4)GlcNAc(b1-4)GlcNAc
Method in brief: as §1

[23] = molecular target: Neu5Ac(a2-6)Gal(b1-4)GlcNAc(b1-3)Gal(b1-3)GlcNAc
Method in brief: as §1

[24] = molecular target: Neu5Ac(a2-6)Gal(b1-4)GlcNAc(b1-3)Gal(b1-4)GlcNAc
Method in brief: as §1

[25] = molecular target: Neu5Ac(a2-6)Gal(b1-4)GlcNAc(b1-3)Gal(b1-4)GlcNAc(b1-2)Man(a1-3)[Neu5Ac(a2-6)Gal(b1-4)GlcNAc(b1-3)Gal(b1-4)GlcNAc(b1-2)Man(a1-6)]GalNAc
Method in brief: as §1

[26] = molecular target: Neu5Ac(a2-6)Gal(b1-4)GlcNAc(b1-3)Gal(b1-4)GlcNAc(b1-3)Gal(b1-4)GlcNAc
Method in brief: as §1

[27] = molecular target: Neu5Ac(a2-6)Gal(b1-4)GlcNAc(b1-3)Gal(b1-4)GlcNAc(b1-3)Gal(b1-4)GlcNAc(b1-2)Man(a1-3)[Neu5Ac(a2-6)Gal(b1-4)GlcNAc(b1-3)Gal(b1-4)GlcNAc(b1-3)Gal(b1-4)GlcNAc(b1-2)Man(a1-6)]GalNAc
Method in brief: as §1

[28] = molecular target: Neu5Ac(a2-6)Gal(b1-4)GlcNAc(b1-3)Gal(b1-4)GlcNAc(b1-3)GalNAc
Method in brief: as §1

[29] = molecular target: Neu5Ac(a2-6)Gal(b1-4)GlcNAc(b1-3)Gal(b1-4)GlcNAc(b1-3)[Neu5Ac(a2-6)Gal(b1-4)GlcNAc(b1-3)Gal(b1-4)GlcNAc(b1-6)]GalNAc
Method in brief: as §1

[30] = molecular target: Neu5Ac(a2-6)Gal(b1-4)GlcNAc(b1-3)Gal(b1-4)GlcNAc(b1-6)[Gal(b1-3)]GalNAc
Method in brief: as §1

[31] = molecular target: Neu5Ac(a2-6)Gal(b1-4)GlcNAc(b1-3)Gal(b1-4)[Fuc(a1-3)]GlcNAc(b1-3)Gal(b1-4)[Fuc(a1-3)]GlcNAc
Method in brief: as §1

[32] = molecular target: Neu5Ac(a2-6)Gal(b1-4)GlcNAc(b1-3)GalNAc
Method in brief: as §1

[33] = molecular target: Neu5Ac(a2-6)Gal(b1-4)GlcNAc(b1-3)[Neu5Ac(a2-6)Gal(b1-4)GlcNAc(b1-6)]GalNAc
Method in brief: as §1

[34] = molecular target: Neu5Ac(a2-6)Gal(b1-4)GlcNAc(b1-6)GalNAc
Method in brief: as §1

[35] = molecular target: Neu5Ac(a2-6)Gal(b1-4)GlcNAc(b1-6)[Gal(b1-3)GlcNAc(b1-3)]Gal(b1-4)Glc
Method in brief: as §1

[36] = molecular target: Neu5Ac(a2-6)Gal(b1-4)GlcNAc(b1-6)[Gal(b1-3)]GalNAc
Method in brief: as §1

[37] = molecular target: Neu5Ac(a2-6)Gal(b1-4)GlcNAc6S
Method in brief: as §1

B1: CRT-1 (Homo sapiens), P27797 (protein)
chain: MLLSVPLLLGLLGLAVAEPAVYFKEQFLDGDGWTSRWIESKHKSDFGKFVLSSGKFYGDEEKDKGLQTSQDARFYALSASFEPFSNKGQTLVVQFTVKHEQNIDCGGGYVKLFPNSLDQTDMHGDSEYNIMFGPDICGPGTKKVHVIFNYKGKNVLINKDIRCKDDEFTHLYTLIVRPDNTYEVKIDNSQVESGSLEDDWDFLPPKKIKDPDASKPEDWDERAKIDDPTDSKPEDWDKPEHIPDPDAKKPEDWDEEMDGEWEPPVIQNPEYKGEWKPRQIDNPDYKGTWIHPEIDNPEYSPDPSIYAYDNFGVLGLDLWQVKSGTIFDNFLITNDEAYAEEFGNETWGVTKAAEKQMKDKQDEEQRLKEEEEDKKRKEEEEAEDKEDDEDKDEDEEDEEDKEEDEEEDVPGQAKDEL
- glycan array binding signal (z-score) [1]: 0.076
- glycan array binding signal (z-score) [2]: -0.177
- glycan array binding signal (z-score) [3]: -0.644
- glycan array binding signal (z-score) [4]: -0.325
- glycan array binding signal (z-score) [5]: -0.013
- glycan array binding signal (z-score) [6]: -0.532
- glycan array binding signal (z-score) [7]: 0.59
- glycan array binding signal (z-score) [8]: -0.009
- glycan array binding signal (z-score) [9]: -0.179
- glycan array binding signal (z-score) [10]: 12.5
- glycan array binding signal (z-score) [11]: -0.404
- glycan array binding signal (z-score) [12]: 0.357
- glycan array binding signal (z-score) [13]: 0.167
- glycan array binding signal (z-score) [14]: 2.53
- glycan array binding signal (z-score) [15]: 1.4
- glycan array binding signal (z-score) [16]: 0.824
- glycan array binding signal (z-score) [17]: -0.67
- glycan array binding signal (z-score) [18]: -0.164
- glycan array binding signal (z-score) [19]: -0.261
- glycan array binding signal (z-score) [20]: 0.688
- glycan array binding signal (z-score) [21]: -1.29
- glycan array binding signal (z-score) [22]: -0.299
- glycan array binding signal (z-score) [23]: -0.004
- glycan array binding signal (z-score) [24]: -0.24
- glycan array binding signal (z-score) [25]: 0.199
- glycan array binding signal (z-score) [26]: -0.649
- glycan array binding signal (z-score) [27]: 1.9
- glycan array binding signal (z-score) [28]: -1.62
- glycan array binding signal (z-score) [29]: 1.25
- glycan array binding signal (z-score) [30]: -0.011
- glycan array binding signal (z-score) [31]: 0.538
- glycan array binding signal (z-score) [32]: -0.468
- glycan array binding signal (z-score) [33]: -0.326
- glycan array binding signal (z-score) [34]: -0.176
- glycan array binding signal (z-score) [35]: 0.026
- glycan array binding signal (z-score) [36]: -0.046
- glycan array binding signal (z-score) [37]: 0.347
